For two compounds, inhibition results are on record in PubChem BioAssay.

What follows is the remainder of the data, with few or none of the hits. Activity calls are given as the source filed them. Cut-off read from the data, not from the text of the source: active = inhibition above about 28%; inactive = the rest.

The assay has as its target Single-stranded DNA-binding protein (Escherichia coli (strain K12)) (UniProt P0AGE0). Kind of assay: SSB-ssDNA binding inhibitors – biochemical, fluorescence polarization, NIH Clinical Collection, counter-screen for HCV NS3 helicase inhibitor project (AID 743271). As to conditions: E. coli SSB-DNA binding, hits give high values, concentration not given here.

Turning to `Cc1cccc(CCN2CCC(C(=O)c3ccc(NS(C)(=O)=O)cc3)CC2)n1`, the inhibition was inactive: -0.39%.
The figure for `Cc1c(C(=O)NN2CCCCC2)nn(-c2ccc(Cl)cc2Cl)c1-c1ccc(I)cc1` is inactive: 1.97%.
